Assay results as given in article PMC9898340.
Results are given in words; binding and its absence hold for the method and conditions named. In cells and extracts the contact can be indirect. Some entries that bind do so weakly or less than the wild type.

Sequences of proteins named here, by UniProt entry; tags and fusion partners are left off.
UniProt P40763: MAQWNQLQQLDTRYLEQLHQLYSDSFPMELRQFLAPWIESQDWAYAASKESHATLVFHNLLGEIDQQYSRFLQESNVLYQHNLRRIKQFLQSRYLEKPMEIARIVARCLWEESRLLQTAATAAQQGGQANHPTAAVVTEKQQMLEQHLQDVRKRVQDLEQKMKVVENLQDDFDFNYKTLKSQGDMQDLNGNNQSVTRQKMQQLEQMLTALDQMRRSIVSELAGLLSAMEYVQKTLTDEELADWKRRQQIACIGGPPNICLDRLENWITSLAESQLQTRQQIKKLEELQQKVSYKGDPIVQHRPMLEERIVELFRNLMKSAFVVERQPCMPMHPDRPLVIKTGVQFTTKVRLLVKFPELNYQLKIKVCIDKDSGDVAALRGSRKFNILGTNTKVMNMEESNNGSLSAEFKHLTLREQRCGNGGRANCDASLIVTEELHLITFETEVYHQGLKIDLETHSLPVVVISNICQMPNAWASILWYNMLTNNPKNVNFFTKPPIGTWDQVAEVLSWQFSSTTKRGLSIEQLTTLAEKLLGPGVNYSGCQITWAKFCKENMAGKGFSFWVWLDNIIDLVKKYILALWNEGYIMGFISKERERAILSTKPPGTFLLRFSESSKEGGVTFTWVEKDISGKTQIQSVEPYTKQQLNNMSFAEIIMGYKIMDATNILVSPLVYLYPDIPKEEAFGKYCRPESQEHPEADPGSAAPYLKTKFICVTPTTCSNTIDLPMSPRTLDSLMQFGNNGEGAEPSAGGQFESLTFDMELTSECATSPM
UniProt P78337: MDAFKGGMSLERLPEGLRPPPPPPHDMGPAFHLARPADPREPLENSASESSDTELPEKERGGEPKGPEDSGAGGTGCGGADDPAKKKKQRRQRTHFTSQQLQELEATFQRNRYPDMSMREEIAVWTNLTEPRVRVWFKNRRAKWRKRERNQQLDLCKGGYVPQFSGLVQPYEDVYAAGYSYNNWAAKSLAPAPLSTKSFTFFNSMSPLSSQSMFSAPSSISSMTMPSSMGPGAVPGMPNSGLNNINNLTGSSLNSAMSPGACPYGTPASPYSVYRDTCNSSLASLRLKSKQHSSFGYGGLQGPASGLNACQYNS

Tests used:
[1] = molecular target: Myc-tagged wildtype STAT3 (UniProt P40763); assay: co-IP; HEK 293 T cells; STAT3 wildtype or domain-deleted with PITX1; which protein was precipitated is not told
[2] = molecular target: Signal transducer and activator of transcription 3 (STAT3) (UniProt P40763); assay: co-IP; HOS and U2OS cells; which protein was precipitated is not told

In the case of “Flag-tagged PITX1 (from UniProt P78337 1-314)”, the binding [1] is reported as “binds”.
With “Paired-like homeodomain transcription factor 1 (PITX1) (from UniProt P78337 1-314)” the binding [2] was “binds”.
